Measurements reported in patent US5356934A, “Selected serotonin subtype receptor agonist to treat sleep apnea” (Eli Lilly and Company, priority 1993, dated 1994).

The chains behind the UniProt entries cited, without tags or fusion partners. Residues count along the entry.
UniProt P35563, 24-483: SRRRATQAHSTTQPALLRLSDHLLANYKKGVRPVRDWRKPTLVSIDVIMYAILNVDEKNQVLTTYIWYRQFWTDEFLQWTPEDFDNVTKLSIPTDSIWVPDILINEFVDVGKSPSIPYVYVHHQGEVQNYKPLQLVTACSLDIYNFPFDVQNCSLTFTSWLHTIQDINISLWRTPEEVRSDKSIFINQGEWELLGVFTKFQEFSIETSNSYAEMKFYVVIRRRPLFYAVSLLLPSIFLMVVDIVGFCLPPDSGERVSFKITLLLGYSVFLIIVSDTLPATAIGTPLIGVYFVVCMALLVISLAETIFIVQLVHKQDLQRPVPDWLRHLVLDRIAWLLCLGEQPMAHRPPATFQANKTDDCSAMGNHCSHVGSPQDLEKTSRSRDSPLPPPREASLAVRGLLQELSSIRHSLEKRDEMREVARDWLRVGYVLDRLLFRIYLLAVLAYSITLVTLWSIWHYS
UniProt A0AAA9SBU1, 33-457: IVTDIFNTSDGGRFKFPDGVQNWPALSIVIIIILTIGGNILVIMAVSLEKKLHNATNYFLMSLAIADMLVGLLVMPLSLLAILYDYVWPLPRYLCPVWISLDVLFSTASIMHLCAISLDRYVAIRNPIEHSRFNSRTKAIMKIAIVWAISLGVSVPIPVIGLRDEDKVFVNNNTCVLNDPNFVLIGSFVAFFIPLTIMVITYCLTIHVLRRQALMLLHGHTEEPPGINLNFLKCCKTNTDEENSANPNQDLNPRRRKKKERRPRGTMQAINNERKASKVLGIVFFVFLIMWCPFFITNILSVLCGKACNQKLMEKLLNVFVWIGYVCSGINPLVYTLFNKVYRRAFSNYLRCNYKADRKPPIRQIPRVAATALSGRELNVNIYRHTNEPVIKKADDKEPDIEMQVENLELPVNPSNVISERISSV

Columns and labels:
5HT3 receptors = 5HT3 receptors (Rattus norvegicus, UniProt P35563); experiment: biochemical
Experimental: (§1) Binding was terminated by filtering samples under reduced pressure through glass fiber (GFB) filters. […] Radioactivity was measured with a liquid scintillation spectrometer.

5HT1C receptor = 5HT1C receptor (Bos taurus, UniProt A0AAA9SBU1); conditions: read-out: Inhibition of Radioligand Binding to 5HT Receptor 1C (IC50); bovine choroid plexus membranes; 2 nM 3H-mesulergine; mean of three experiments
Experimental: as §1

CNCC[C@@H](Oc1ccc(C(F)(F)F)cc1)c1ccccc1 [( -- R)-fluoxetine] showed an IC50 (5HT3 receptors) of 16 µM and an IC50 (5HT1C receptor) of 0.19 µM.
